Measurements taken from the supplement of paper PMC10849652.
The other results are listed elsewhere or left out.

Chains of the proteins cited; added tags and fusions are not shown. Lines headed by an entry give the natural chain unless they say otherwise; changes in a name come on top.
UniProt P69905, whole entry, looked up: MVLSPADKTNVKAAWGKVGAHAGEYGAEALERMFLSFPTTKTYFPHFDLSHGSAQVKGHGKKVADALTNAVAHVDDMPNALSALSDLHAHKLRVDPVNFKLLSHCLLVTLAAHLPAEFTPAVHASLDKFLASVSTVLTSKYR
UniProt P09211: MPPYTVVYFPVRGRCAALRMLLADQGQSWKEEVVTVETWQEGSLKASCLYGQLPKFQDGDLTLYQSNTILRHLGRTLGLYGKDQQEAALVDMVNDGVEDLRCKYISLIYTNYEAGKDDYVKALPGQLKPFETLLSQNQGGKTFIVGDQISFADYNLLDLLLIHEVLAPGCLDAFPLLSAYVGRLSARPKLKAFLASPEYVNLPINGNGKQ
UniProt P46976: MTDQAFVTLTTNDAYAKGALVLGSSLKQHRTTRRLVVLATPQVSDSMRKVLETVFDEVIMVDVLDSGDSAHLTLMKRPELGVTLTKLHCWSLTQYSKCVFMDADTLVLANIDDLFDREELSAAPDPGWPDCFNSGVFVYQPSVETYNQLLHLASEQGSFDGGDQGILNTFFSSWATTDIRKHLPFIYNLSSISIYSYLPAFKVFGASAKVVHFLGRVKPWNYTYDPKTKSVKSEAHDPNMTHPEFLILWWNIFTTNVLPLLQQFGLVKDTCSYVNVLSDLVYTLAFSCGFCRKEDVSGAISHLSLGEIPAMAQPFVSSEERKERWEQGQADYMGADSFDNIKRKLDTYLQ
UniProt Q13547, whole entry, looked up: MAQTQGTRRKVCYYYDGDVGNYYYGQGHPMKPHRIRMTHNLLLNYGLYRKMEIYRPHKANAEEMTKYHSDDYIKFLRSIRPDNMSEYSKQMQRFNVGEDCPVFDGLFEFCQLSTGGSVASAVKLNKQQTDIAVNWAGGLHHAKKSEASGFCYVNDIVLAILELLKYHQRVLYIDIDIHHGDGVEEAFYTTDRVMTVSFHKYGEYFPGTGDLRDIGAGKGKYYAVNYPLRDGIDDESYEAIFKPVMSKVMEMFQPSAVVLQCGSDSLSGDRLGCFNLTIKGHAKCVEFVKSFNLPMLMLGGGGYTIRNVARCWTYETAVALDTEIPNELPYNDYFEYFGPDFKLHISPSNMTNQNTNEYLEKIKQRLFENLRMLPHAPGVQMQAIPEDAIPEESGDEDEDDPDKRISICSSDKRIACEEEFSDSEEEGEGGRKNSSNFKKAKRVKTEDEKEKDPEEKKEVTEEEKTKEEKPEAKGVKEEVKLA
UniProt Q16774: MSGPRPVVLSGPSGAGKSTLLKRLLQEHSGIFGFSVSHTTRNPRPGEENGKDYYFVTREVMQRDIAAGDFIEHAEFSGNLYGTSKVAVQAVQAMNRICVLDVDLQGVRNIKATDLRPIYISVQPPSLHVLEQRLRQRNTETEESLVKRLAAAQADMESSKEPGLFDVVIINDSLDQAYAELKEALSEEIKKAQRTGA
UniProt Q9ULT8: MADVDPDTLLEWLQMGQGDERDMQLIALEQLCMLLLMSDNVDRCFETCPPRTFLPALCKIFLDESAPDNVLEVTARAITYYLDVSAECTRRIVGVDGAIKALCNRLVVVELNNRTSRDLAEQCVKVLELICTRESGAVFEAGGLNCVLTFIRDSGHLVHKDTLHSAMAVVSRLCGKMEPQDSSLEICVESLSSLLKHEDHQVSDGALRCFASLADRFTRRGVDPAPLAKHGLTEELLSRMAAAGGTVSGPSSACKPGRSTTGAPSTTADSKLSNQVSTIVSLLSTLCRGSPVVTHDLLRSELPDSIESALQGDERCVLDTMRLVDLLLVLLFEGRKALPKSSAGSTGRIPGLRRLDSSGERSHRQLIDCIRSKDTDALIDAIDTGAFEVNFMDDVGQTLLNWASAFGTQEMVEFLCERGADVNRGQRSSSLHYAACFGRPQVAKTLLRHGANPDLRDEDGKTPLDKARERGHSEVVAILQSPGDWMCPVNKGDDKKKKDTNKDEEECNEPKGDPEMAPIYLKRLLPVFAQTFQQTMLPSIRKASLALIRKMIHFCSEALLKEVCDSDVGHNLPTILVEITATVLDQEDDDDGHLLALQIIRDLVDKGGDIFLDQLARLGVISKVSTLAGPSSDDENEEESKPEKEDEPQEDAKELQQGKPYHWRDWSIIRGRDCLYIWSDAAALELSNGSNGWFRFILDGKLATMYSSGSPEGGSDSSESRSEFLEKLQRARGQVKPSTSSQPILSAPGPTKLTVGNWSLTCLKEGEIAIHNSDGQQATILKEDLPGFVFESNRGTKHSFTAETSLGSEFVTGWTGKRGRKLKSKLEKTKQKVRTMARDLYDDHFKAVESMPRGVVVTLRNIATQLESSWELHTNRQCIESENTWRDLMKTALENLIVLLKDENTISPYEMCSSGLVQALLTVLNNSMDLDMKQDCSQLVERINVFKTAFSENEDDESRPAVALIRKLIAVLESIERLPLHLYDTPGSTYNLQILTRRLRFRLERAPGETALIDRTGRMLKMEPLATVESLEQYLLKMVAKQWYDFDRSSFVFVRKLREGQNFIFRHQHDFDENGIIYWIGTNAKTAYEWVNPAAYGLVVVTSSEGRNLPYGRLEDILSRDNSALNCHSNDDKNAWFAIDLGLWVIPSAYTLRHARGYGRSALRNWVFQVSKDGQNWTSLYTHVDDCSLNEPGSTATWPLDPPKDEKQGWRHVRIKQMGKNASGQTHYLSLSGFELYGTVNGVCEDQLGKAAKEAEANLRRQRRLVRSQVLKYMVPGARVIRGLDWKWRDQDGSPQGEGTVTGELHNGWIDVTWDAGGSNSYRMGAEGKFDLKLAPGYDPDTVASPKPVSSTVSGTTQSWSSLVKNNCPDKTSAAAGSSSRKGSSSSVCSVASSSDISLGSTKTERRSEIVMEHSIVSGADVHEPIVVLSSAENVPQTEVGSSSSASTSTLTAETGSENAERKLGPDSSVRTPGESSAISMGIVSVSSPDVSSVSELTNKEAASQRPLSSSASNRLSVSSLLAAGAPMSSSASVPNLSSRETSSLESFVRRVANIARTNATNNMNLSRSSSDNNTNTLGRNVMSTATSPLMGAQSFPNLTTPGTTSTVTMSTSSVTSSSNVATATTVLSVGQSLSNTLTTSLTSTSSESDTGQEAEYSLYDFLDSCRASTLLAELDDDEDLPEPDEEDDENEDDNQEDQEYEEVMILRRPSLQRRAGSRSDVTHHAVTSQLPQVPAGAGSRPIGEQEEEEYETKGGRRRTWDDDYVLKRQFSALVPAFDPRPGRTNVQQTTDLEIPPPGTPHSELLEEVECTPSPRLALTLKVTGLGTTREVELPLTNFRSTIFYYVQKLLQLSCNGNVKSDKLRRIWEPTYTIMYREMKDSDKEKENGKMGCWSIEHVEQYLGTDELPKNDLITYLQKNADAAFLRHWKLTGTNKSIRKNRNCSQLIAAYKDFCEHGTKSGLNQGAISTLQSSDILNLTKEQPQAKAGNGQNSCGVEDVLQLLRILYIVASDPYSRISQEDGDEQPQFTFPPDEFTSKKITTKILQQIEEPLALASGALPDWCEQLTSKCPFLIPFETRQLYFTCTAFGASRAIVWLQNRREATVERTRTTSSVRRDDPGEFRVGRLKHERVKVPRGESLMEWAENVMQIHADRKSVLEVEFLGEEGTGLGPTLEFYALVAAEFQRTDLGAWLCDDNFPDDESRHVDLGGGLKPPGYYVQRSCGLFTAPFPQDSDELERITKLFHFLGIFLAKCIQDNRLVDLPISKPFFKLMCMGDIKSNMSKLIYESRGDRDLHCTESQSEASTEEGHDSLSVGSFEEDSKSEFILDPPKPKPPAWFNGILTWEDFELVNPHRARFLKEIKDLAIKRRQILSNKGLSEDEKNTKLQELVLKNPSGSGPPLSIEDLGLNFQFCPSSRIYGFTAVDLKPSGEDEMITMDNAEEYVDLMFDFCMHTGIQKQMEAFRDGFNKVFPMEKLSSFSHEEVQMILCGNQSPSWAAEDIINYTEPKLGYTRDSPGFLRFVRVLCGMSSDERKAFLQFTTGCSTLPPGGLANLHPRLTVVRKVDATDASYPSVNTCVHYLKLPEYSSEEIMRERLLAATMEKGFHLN
UniProt Q9H6D7: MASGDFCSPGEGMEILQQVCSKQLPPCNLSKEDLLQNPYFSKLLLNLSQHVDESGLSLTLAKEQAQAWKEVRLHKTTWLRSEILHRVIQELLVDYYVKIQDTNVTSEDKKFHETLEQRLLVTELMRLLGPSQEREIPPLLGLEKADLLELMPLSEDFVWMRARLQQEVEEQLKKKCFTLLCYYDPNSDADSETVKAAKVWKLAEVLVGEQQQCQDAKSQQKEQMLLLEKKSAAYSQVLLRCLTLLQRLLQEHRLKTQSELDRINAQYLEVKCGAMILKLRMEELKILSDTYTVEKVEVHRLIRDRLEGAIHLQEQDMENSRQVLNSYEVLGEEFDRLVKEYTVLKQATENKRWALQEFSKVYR
UniProt Q92769, whole entry, looked up: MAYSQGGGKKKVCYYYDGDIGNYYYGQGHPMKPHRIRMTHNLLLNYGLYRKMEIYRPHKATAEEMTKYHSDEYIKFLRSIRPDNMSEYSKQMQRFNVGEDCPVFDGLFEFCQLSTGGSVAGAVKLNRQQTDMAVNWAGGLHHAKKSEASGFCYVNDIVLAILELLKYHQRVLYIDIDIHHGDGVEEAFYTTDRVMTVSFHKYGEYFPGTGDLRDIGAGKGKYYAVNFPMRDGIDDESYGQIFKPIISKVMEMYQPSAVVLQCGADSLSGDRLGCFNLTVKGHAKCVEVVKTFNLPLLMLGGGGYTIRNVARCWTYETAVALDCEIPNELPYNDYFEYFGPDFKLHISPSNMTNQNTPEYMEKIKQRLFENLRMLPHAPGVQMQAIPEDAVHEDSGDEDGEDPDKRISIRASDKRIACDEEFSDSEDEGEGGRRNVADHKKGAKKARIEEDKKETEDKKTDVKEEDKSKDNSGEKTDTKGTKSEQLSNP
UniProt Q03013: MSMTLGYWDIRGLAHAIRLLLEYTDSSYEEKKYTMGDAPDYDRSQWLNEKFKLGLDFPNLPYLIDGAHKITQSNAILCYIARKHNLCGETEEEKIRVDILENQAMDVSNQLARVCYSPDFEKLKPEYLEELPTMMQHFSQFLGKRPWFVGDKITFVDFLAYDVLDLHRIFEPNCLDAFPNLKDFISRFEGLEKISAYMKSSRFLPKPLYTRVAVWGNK
UniProt P06865: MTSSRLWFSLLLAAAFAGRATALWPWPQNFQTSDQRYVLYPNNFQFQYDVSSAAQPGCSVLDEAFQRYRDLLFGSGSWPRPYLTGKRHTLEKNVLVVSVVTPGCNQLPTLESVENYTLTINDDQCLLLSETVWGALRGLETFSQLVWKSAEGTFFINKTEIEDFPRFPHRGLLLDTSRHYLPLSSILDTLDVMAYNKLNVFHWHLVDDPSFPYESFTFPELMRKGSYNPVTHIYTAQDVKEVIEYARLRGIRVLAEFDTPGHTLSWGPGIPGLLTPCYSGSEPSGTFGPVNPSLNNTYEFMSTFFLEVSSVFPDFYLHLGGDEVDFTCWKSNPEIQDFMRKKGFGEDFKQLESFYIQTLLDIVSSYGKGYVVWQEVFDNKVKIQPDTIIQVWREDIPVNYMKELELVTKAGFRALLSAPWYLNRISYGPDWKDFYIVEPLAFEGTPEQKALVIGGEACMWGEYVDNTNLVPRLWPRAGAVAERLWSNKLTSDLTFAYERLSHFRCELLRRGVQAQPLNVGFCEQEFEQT
UniProt Q9Y5Q8: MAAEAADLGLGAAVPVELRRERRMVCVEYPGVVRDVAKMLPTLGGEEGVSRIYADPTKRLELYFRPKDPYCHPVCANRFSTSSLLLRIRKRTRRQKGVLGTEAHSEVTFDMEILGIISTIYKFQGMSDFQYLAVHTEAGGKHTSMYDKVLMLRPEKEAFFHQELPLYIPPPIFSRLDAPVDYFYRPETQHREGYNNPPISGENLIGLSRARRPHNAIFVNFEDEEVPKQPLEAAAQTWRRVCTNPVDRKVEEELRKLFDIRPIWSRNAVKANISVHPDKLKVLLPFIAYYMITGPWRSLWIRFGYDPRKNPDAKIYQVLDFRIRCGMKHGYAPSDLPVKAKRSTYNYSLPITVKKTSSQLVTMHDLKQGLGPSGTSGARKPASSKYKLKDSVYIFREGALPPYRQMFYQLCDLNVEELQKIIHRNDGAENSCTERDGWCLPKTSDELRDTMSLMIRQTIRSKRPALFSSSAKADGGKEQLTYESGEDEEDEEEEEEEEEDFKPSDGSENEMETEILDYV
UniProt P29083: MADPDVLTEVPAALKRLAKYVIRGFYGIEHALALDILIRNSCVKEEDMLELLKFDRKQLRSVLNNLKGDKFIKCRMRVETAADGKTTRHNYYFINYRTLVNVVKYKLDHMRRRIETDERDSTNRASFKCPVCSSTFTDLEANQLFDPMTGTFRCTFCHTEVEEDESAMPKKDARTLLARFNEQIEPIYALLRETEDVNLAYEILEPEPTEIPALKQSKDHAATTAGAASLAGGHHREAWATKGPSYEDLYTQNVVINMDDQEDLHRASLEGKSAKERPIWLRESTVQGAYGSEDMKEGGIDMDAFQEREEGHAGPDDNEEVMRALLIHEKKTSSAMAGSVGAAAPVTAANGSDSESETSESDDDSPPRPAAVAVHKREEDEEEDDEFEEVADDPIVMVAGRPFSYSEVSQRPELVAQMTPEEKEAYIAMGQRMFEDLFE

These targets were tested with CN1CCN(CCOc2cc(OC3CCOCC3)c3c(Nc4c(Cl)ccc5c4OCO5)ncnc3c2)CC1 [saracatinib] (assay: log2 fold change, soluble protein after heating vs DMSO (PISA); higher = thermal stabilisation; K562 cells, 10 uM, 30 min; active = over 0.2 and 3.5 SD of the protein, either way, in both replicates (recomputed)).
In short: (§1)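 K562 cells (2×10^6 cells/mL) were treated with 10 μM compound for 30 min, and aliquots were heated for 3 min over 48°C-58°C. Pooled aliquots were extracted in PBS with 0.5% NP-40 at 4°C, and the supernatant after 21,000xg for 90 min was measured by TMTpro 16plex LC-MS/MS with channel sums equalised. Reported thermal stability, relative to control samples and from duplicates, is a log2 fold change.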

| Target | log2 fold change |
| --- | --- |
| GYS1 (UniProt P13807) | inactive: -0.255 |
| HBQ1 (UniProt P09105) | inactive: -0.029 |
| GTF2A2 (UniProt P52657) | inactive: 0.034 |
| HBZ (UniProt P02008) | inactive: 0.022 |
| GTF2A1 (UniProt P52655) | inactive: 0.048 |
| HBA1 (UniProt P69905) | inactive: -0.017 |
| GSTP1 (UniProt P09211) | inactive: -0.011 |
| GTF2E2 (UniProt P29084) | inactive: -0.103 |
| HEATR3 (UniProt Q7Z4Q2) | inactive: -0.045 |
| GUF1 (UniProt Q8N442) | inactive: 0.089 |
| GYG1 (UniProt P46976) | inactive: -0.03 |
| GTF2H3 (UniProt Q13889) | inactive: -0.099 |
| HAX1 (UniProt O00165) | inactive: -0.067 |
| HDDC2 (UniProt Q7Z4H3) | inactive: 0.045 |
| HDAC1 (UniProt Q13547) | inactive: -0.004 |
| GUK1 isoform 2 (UniProt Q16774) | inactive: 0.001 |
| GSK3B isoform 2 (UniProt P49841) | inactive: 0.012 |
| HECTD1 (UniProt Q9ULT8) | inactive: -0.184 |
| HAUS4 (UniProt Q9H6D7) | inactive: 0.466 |
| HDAC2 (UniProt Q92769) | inactive: -0.001 |

| Target | log2 fold change |
| --- | --- |
| GUSB (UniProt P08236) | inactive: 0.03 |
| H2AFX (UniProt P16104) | inactive: -0.123 |
| GSTO1 (UniProt P78417) | inactive: 0.027 |
| HDAC6 (UniProt Q9UBN7) | inactive: -0.067 |
| HADHB (UniProt P55084) | inactive: -0.111 |
| GSTM4 (UniProt Q03013) | inactive: -0.106 |
| HEXA (UniProt P06865) | inactive: 0.031 |
| GTF3A (UniProt Q92664) | inactive: 0.019 |
| H2AZ1 (UniProt P0C0S5) | inactive: -0.082 |
| GSR (UniProt P00390) | inactive: -0.021 |
| HEATR5B (UniProt Q9P2D3) | inactive: 0.043 |
| HEXB (UniProt P07686) | inactive: 0 |
| HAT1 (UniProt O14929) | inactive: 0.047 |
| HDGFL2 (UniProt Q7Z4V5) | inactive: 0.01 |
| GTF3C5 isoform 3 (UniProt Q9Y5Q8) | inactive: 0.024 |
| GTF2E1 (UniProt P29083) | inactive: -0.026 |
| H1FX (UniProt Q92522) | inactive: -0.054 |
| GTF3C4 (UniProt Q9UKN8) | inactive: 0.06 |
| HDHD2 (UniProt Q9H0R4) | inactive: -0.004 |

Each target was assayed with CN1CCN(c2nc(C3=C(c4c[nH]c5ccccc45)C(=O)NC3=O)c3ccccc3n2)CC1 [sotrastaurin] in the same assay as above.
In short: as §1

| Target | log2 fold change |
| --- | --- |
| GYS1 (UniProt P13807) | inactive: -0.286 |
| HBQ1 (UniProt P09105) | inactive: 0.007 |
| GTF2A2 (UniProt P52657) | inactive: 0.018 |
| HBZ (UniProt P02008) | inactive: 0.03 |
| GTF2A1 (UniProt P52655) | inactive: 0.087 |
| HBA1 (UniProt P69905) | inactive: 0.036 |
| GSTP1 (UniProt P09211) | inactive: 0.053 |
| GTF2E2 (UniProt P29084) | inactive: -0.163 |
| HEATR3 (UniProt Q7Z4Q2) | inactive: -0.167 |
| GUF1 (UniProt Q8N442) | inactive: -0.102 |
| GYG1 (UniProt P46976) | inactive: -0.425 |
| GTF2H3 (UniProt Q13889) | inactive: -0.079 |
| HAX1 (UniProt O00165) | inactive: -0.106 |
| HDDC2 (UniProt Q7Z4H3) | inactive: 0.042 |
| HDAC1 (UniProt Q13547) | inactive: -0.026 |
| GUK1 isoform 2 (UniProt Q16774) | inactive: -0.223 |
| GSK3B isoform 2 (UniProt P49841) | inactive: 0.2 |
| HECTD1 (UniProt Q9ULT8) | inactive: -0.066 |
| HAUS4 (UniProt Q9H6D7) | inactive: -0.194 |
| HDAC2 (UniProt Q92769) | inactive: -0.02 |

| Target | log2 fold change |
| --- | --- |
| GUSB (UniProt P08236) | inactive: -0.004 |
| H2AFX (UniProt P16104) | inactive: 0.081 |
| GSTO1 (UniProt P78417) | inactive: 0.094 |
| HDAC6 (UniProt Q9UBN7) | inactive: -0.013 |
| HADHB (UniProt P55084) | inactive: 0.011 |
| GSTM4 (UniProt Q03013) | inactive: -0.066 |
| HEXA (UniProt P06865) | inactive: 0.098 |
| GTF3A (UniProt Q92664) | inactive: -0.008 |
| H2AZ1 (UniProt P0C0S5) | inactive: 0.067 |
| GSR (UniProt P00390) | inactive: 0.048 |
| HEATR5B (UniProt Q9P2D3) | inactive: 0.008 |
| HEXB (UniProt P07686) | inactive: 0.029 |
| HAT1 (UniProt O14929) | inactive: -0.058 |
| HDGFL2 (UniProt Q7Z4V5) | inactive: 0.119 |
| GTF3C5 isoform 3 (UniProt Q9Y5Q8) | inactive: -0.148 |
| GTF2E1 (UniProt P29083) | inactive: -0.11 |
| H1FX (UniProt Q92522) | inactive: -0.237 |
| GTF3C4 (UniProt Q9UKN8) | inactive: 0.021 |
| HDHD2 (UniProt Q9H0R4) | inactive: -0.077 |
